PubChem BioAssay AID1347075 (National Center for Advancing Translational Sciences (NCATS), 2019)
Out of some 400,000 compounds screened, about 5,500 (1.4%) were called active. The inconclusive results got no clear call from the source; some entries with a clear call stand among them for comparison. Calls follow the shape of the dose curve; as a rule, active = well fitted cell-killing curve with a large enough effect; inconclusive = small, poorly fitted or top-dose-only effect, or effect the other way; inactive = flat fitted curve, though single readings scatter. Where the call is inconclusive, the potency comes from a doubtful curve fit.

Assay: qHTS assay for MDR1-selective chemotherapeutics: Primary screen using the parental adenocarcinoma cell KB-3-1; also: nearly all actives have a fitted effect of over 60% in size
Conditions: KB-3-1 viability, CellTiter-Glo ATP luminescence, 72 h; activity change, negative = cytotoxic: at 46.1 µM (top of the series)
Procedure, shortened: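 Viability of parental KB-3-1 cells, measured by CellTiter-Glo luminescence, followed a 72 h incubation at 37 °C with pinned compounds in phenol-red-free DMEM containing 10% FBS.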
% is scaled to controls: 0 for no effect and ±100 for the full control effect; potency is read from the fitted curve at half-maximal effect.

Compound | Potency | activity change, negative = cytotoxic
CCOc1ccc2cc(/C=C/C(=O)c3ccco3)c(Cl)nc2c1 | inconclusive: 18.4 µM [cytotoxic, single point] | 
Cn1ncc2c(O/N=C(\N)c3ccc(C(F)(F)F)cc3)ncnc21 | inconclusive: 29.1 µM [cytotoxic, single point] | 
COc1ccc(NCC(=O)n2c(C)c(C)c3ccccc32)cc1 | active: 11.6 µM | 
CCOC(=O)c1sc(NC(=O)c2ccncc2)c(C#N)c1C | active: 4.11 µM | 
CC(NC(=S)Nc1ccc(F)cc1)c1ccccc1 (stereo unspecified) | inconclusive: 16.4 µM [cytotoxic, single point] | 
CN1CCc2c(sc3c2C(=O)NC(c2cn(Cc4ccccc4)c4ccccc24)N3)C1 (stereo unspecified) | active: 9.2 µM | 
Cc1nn(-c2ccccc2)c(Cl)c1/C=C1\SC(=S)N(CCCCCC(=O)O)C1=O | inactive | 
CCC1Oc2ccccc2N(CC(=O)NCCC2=CCCCC2)C1=O (stereo unspecified) | inactive | 
COc1ccccc1OCCc1nnc(N)s1 |  | inconclusive: -16.6%
O=C(NC(c1ccccc1)c1ccc2ccccc2n1)C1CCN(CCOc2ccc(Cl)cc2)CC1 (stereo unspecified) | inconclusive: 23.1 µM [cytotoxic, single point] | 
COc1cccc(N2CCN(C(=O)c3cc4c(s3)CCCCC4)CC2)c1 |  | inconclusive: -6.48%
CC(=O)N1CCc2cc(Br)cc(S(=O)(=O)N3CCC(C(=O)Nc4ccc(C(C)C)cc4)CC3)c21 | inconclusive: 18.4 µM [cytotoxic, single point] | 
C=CCn1cccc(C(=O)Nc2ccc(Cl)cc2)c1=O | inconclusive: 14.6 µM [cytotoxic, partial curve, poor fit] | 
CS(=O)(=O)N(CC(=O)NCc1ccccc1)c1ccc(Cl)cc1 |  | inconclusive: -47%
COc1ccc(C(=O)CC2(O)C(=O)N(Cc3cccc(C(F)(F)F)c3)c3ccccc32)cc1 (stereo unspecified) | inconclusive: 29.1 µM [cytotoxic, single point] | 
COc1ccc(-c2nc3c(c4nnc(SC(C)C(=O)Nc5ccc(C)cc5)n24)COC(C)(C)C3)cc1 (stereo unspecified) | inactive | 
COc1ccc(C)cc1NC(=O)Nc1cccc(OCc2cc(=O)n3ccc(C)cc3n2)c1 | inactive | 
CCCCc1c(-c2ccc(OC)cc2)ncn1CCc1ccccc1OC | inconclusive: 29.1 µM [cytotoxic, single point] | 
O=C(Nc1c(Cl)cc(Cl)cc1-c1nc2ccccc2s1)c1ccc(Br)o1 | inconclusive: 29.1 µM [cytotoxic, single point] | 
O=C(COC(=O)CNC(=O)c1ccccc1Cl)Nc1ccccc1Cl | inconclusive: 23.1 µM [rising, single point] | 
CCOC(=O)c1cc(C(=O)Nc2ccccc2F)nn1C | inconclusive: 11.2 µM [cytotoxic, partial curve] | 
CCCCc1ccc(NC(=O)c2ccc3c(c2)CCN3S(=O)(=O)CC)cc1 | inconclusive: 4.61 µM [cytotoxic, partial curve] | 
CCc1ccc(/C=N/NC(=O)c2cc(-c3ccccc3OC)nc3ccccc23)s1 | inconclusive: 29.1 µM [cytotoxic, single point] | 

Compound | Potency | activity change, negative = cytotoxic
Cc1ccc(CN2CCc3c(OCc4ccc(F)cc4)cccc3C2=O)cc1 | inconclusive: 16.4 µM [cytotoxic, single point] | 
COc1ccccc1N1CCN(C(=O)Nc2cccc(C)c2)CC1 | inactive | 
COc1ccc(C2CC(c3ccccc3)=NN2C(=O)COC(=O)c2ccc(S(C)(=O)=O)cc2)cc1 (stereo unspecified) | inactive | 
CCOc1ccc(Nc2cc(C)nc(N3CCOCC3)n2)cc1 | inactive | 
CC(=O)Nc1sc2c(c1CN1CCN(c3ccc(F)cc3)CC1)CCCC2 | inconclusive: 16.4 µM [cytotoxic, partial curve, poor fit] | 
CSc1ccc(/C=C2\C=C(C(O)c3ccc(SC)cc3)c3ccccc32)cc1 (stereo unspecified) | active: 16.4 µM | 
O=C(NCc1ccc(F)cc1)C1CCN(S(=O)(=O)c2cccc3nonc23)CC1 | inconclusive: 29.1 µM [rising, single point] | 
Cc1cccc(C)c1C(O)c1ncc(-c2ccc(Cl)cc2)[nH]1 (stereo unspecified) | inactive | 
COc1c(F)cccc1C1=CC(=O)C[C@H](c2ccc(F)cc2)C1 | inactive | 
CCC(C)c1ccc(NC(=S)NCCn2cc(Cl)cn2)cc1 (stereo unspecified) | inconclusive: 29.1 µM [cytotoxic, single point] | 
C[C@]1(C(=O)NCCCNc2ncc(C(F)(F)F)cc2Cl)C=C[C@@H](Cc2ccccc2)N1C(=O)c1ccccc1 | inconclusive: 20.6 µM [cytotoxic, single point] | 
Cc1ncc2c(n1)-c1cc(F)ccc1SC2 | inactive | 
COc1cccc(NC(=O)/C=C/c2ccc(S(=O)(=O)N3CCOCC3)cc2)c1 | inactive | 
CC(C)CC1=NN2C(=N)/C(=C\c3coc4ccccc4c3=O)C(=O)N=C2S1 | inactive | 
Cc1ccc(OCc2ccc(C(=O)Nc3c(C)nn(Cc4c(F)c(F)c(F)c(F)c4F)c3C)o2)c([N+](=O)[O-])c1 | inconclusive: 23.1 µM [cytotoxic, single point] | 
Cc1c(CC(C)C)nc(N)c(C#N)c1-c1ccccc1 | inconclusive: 29.1 µM [cytotoxic, single point] | 
O=C(Cn1ncc2c([nH]c3ccccc32)c1=O)NCCCN1CCN(c2ccccc2)CC1 | inactive | 
COc1cc(C2c3cc4c(cc3C3OC(=O)C2C3CO)OCO4)cc(OC)c1OC (stereo unspecified) | inconclusive: 0.259 µM [cytotoxic, full curve, poor fit] | 
Oc1cccc2ccc(/C=C/c3ccccc3Br)nc12 | inconclusive: 6.51 µM [cytotoxic, partial curve] | 
CC1(Cc2ccc(F)c(Cl)c2)C(=O)Nc2c(Cl)cccc21 (stereo unspecified) | inactive | 
CCOc1ccc(CCNC(=O)CSc2nnnn2-c2ccccc2)cc1OCC |  | inconclusive: 10.1%
Cc1cccc(OCC(=O)NCC(=O)N/N=C/c2cccnc2)c1 | inconclusive: 20.6 µM [rising, single point] | 
O=S(=O)(c1ccc2ccccc2c1)N1CCN(C(=S)Nc2ccc(F)cc2)CC1 | inconclusive: 23.1 µM [cytotoxic, single point] | 

Quoted from the results shown (4 entries):
Compound | Potency | activity change, negative = cytotoxic
Cc1c(CC(C)C)nc(N)c(C#N)c1-c1ccccc1 | inconclusive: 29.1 µM [cytotoxic, single point] | 
O=C(Cn1ncc2c([nH]c3ccccc32)c1=O)NCCCN1CCN(c2ccccc2)CC1 | inactive | 
COc1cc(C2c3cc4c(cc3C3OC(=O)C2C3CO)OCO4)cc(OC)c1OC (stereo unspecified) | inconclusive: 0.259 µM [cytotoxic, full curve, poor fit] | 
Oc1cccc2ccc(/C=C/c3ccccc3Br)nc12 | inconclusive: 6.51 µM [cytotoxic, partial curve] | 
